PubChem BioAssay AID1224829 – NIAID | 2016

- Aim: 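Genes needed for LPS-driven NF-kappaB p65 nuclear entry in mouse macrophages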 (follow-up of hits)
- System: mouse RAW264.7 G9 macrophage reporter cells
- Knock-down reagent: single siRNA against mouse genes, 100 nM
- Time to read-out: 2 days of siRNA knock-down, then 40 min of LPS before fixing
- Conditions: LPS (Salmonella minnesota R595) at 10 ng/ml
- Read-out: 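Imaging of GFP-p65 after 40 min of LPS; nuclear over perinuclear ring intensity ratio, scaled to plate median and non-targeting control wells, given as z-score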
- Scale: p65 translocation z-score: higher = more nuclear NF-kappaB p65 after LPS
- Call rule: 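Active means the replicate-mean z-score lies beyond plus or minus 2, in either direction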
- Meaning of the calls: active = changed p65 translocation (either direction); inactive = no clear change
In all, the deposit lists about 3,800 reagents; below is a random part of them. 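Calls cover raised and lowered translocation; gene median uses one vendor's three siRNAs; qiagen siRNAs acted more weakly than ambion siRNAs.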 The numbers tell different reagents against one gene apart. Not all columns of the deposit are shown. Reagent sequences are not shown.

With Ogt #1, siRNA vendor or control pool ambion single siRNA, how do the results read?
p65 translocation z-score, replicate mean: -1.23; activity call: inactive

How did the screen score Ogt #2, siRNA vendor or control pool ambion single siRNA?
p65 translocation z-score, replicate mean: -1.14; activity call: inactive

What is on record for Ogt #3, siRNA vendor or control pool ambion single siRNA?
p65 translocation z-score, replicate mean: -2.55; activity call: active

What is on record for Ogt #4, siRNA vendor or control pool qiagen single siRNA?
p65 translocation z-score, replicate mean: 0.908; activity call: inactive

For Ogt #5, siRNA vendor or control pool qiagen single siRNA, what does the deposit list?
p65 translocation z-score, replicate mean: 0.123; activity call: inactive

What did the screen give for Ogt #6, siRNA vendor or control pool qiagen single siRNA?
p65 translocation z-score, replicate mean: 3.19; activity call: active

With Pofut1 (protein O-fucosyltransferase 1) #1, siRNA vendor or control pool ambion single siRNA, what was measured?
p65 translocation z-score, replicate mean: -0.69; activity call: inactive

What is on record for Pofut1 (protein O-fucosyltransferase 1) #2, siRNA vendor or control pool ambion single siRNA?
p65 translocation z-score, replicate mean: -4.51; activity call: active

Which result is listed for Pofut1 (protein O-fucosyltransferase 1) #3, siRNA vendor or control pool ambion single siRNA?
p65 translocation z-score, replicate mean: -5.12; activity call: active

With Pofut1 (protein O-fucosyltransferase 1) #4, siRNA vendor or control pool qiagen single siRNA, what was measured?
p65 translocation z-score, replicate mean: -0.875; activity call: inactive

With Pofut1 (protein O-fucosyltransferase 1) #5, siRNA vendor or control pool qiagen single siRNA, what was measured?
p65 translocation z-score, replicate mean: -3.86; activity call: active

For Pofut1 (protein O-fucosyltransferase 1) #6, siRNA vendor or control pool qiagen single siRNA, what was measured?
p65 translocation z-score, replicate mean: -5.31; activity call: active

What did the screen give for Bmpr2 (bone morphogenetic protein receptor type 2) #1, siRNA vendor or control pool ambion single siRNA?
p65 translocation z-score, replicate mean: -1.39; activity call: inactive

With Bmpr2 (bone morphogenetic protein receptor type 2) #2, siRNA vendor or control pool ambion single siRNA, what does the deposit list?
p65 translocation z-score, replicate mean: -0.238; activity call: inactive

What did the screen give for Bmpr2 (bone morphogenetic protein receptor type 2) #3, siRNA vendor or control pool ambion single siRNA?
p65 translocation z-score, replicate mean: -2.23; activity call: active

For Bmpr2 (bone morphogenetic protein receptor type 2) #4, siRNA vendor or control pool qiagen single siRNA, what was measured?
p65 translocation z-score, replicate mean: 1.8; activity call: inactive

What is on record for Bmpr2 (bone morphogenetic protein receptor type 2) #5, siRNA vendor or control pool qiagen single siRNA?
p65 translocation z-score, replicate mean: -0.844; activity call: inactive

For Bmpr2 (bone morphogenetic protein receptor type 2) #6, siRNA vendor or control pool qiagen single siRNA, what does the deposit list?
p65 translocation z-score, replicate mean: -1.95; activity call: inactive

Which result is listed for Fstl4 (follistatin-like 4) #1, siRNA vendor or control pool ambion single siRNA?
p65 translocation z-score, replicate mean: -0.577; activity call: inactive

How did the screen score Fstl4 (follistatin-like 4) #2, siRNA vendor or control pool ambion single siRNA?
p65 translocation z-score, replicate mean: -1.84; activity call: inactive

How did the screen score Fstl4 (follistatin-like 4) #3, siRNA vendor or control pool ambion single siRNA?
p65 translocation z-score, replicate mean: -3.87; activity call: active

With Fstl4 (follistatin-like 4) #4, siRNA vendor or control pool qiagen single siRNA, how do the results read?
p65 translocation z-score, replicate mean: -0.439; activity call: inactive

For Fstl4 (follistatin-like 4) #5, siRNA vendor or control pool qiagen single siRNA, how do the results read?
p65 translocation z-score, replicate mean: 4.72; activity call: active

With Fstl4 (follistatin-like 4) #6, siRNA vendor or control pool qiagen single siRNA, what does the deposit list?
p65 translocation z-score, replicate mean: 1.67; activity call: inactive

Laid out differently: 2 of the entries above
gene knocked down | reagent | siRNA vendor or control pool | p65 translocation z-score, replicate mean | activity call
Pofut1 (protein O-fucosyltransferase 1) | 2 | ambion single siRNA | -4.51 | active
Pofut1 (protein O-fucosyltransferase 1) | 3 | ambion single siRNA | -5.12 | active

Continued:
Which result is listed for Prrt3 (proline-rich transmembrane protein 3) #1, siRNA vendor or control pool ambion single siRNA?
p65 translocation z-score, replicate mean: -2.98; activity call: active

Which result is listed for Prrt3 (proline-rich transmembrane protein 3) #2, siRNA vendor or control pool ambion single siRNA?
p65 translocation z-score, replicate mean: -1.98; activity call: inactive

How did the screen score Prrt3 (proline-rich transmembrane protein 3) #3, siRNA vendor or control pool ambion single siRNA?
p65 translocation z-score, replicate mean: -2.43; activity call: active

What did the screen give for Prrt3 (proline-rich transmembrane protein 3) #4, siRNA vendor or control pool qiagen single siRNA?
p65 translocation z-score, replicate mean: 2.56; activity call: active

Which result is listed for Prrt3 (proline-rich transmembrane protein 3) #5, siRNA vendor or control pool qiagen single siRNA?
p65 translocation z-score, replicate mean: 3.14; activity call: active

How did the screen score Prrt3 (proline-rich transmembrane protein 3) #6, siRNA vendor or control pool qiagen single siRNA?
p65 translocation z-score, replicate mean: -2.68; activity call: active

How did the screen score Efna5 (ephrin A5) #1, siRNA vendor or control pool ambion single siRNA?
p65 translocation z-score, replicate mean: -4.94; activity call: active

For Efna5 (ephrin A5) #2, siRNA vendor or control pool ambion single siRNA, what does the deposit list?
p65 translocation z-score, replicate mean: -4.36; activity call: active

With Efna5 (ephrin A5) #3, siRNA vendor or control pool ambion single siRNA, what does the deposit list?
p65 translocation z-score, replicate mean: -3.66; activity call: active

What did the screen give for Efna5 (ephrin A5) #4, siRNA vendor or control pool qiagen single siRNA?
p65 translocation z-score, replicate mean: -0.316; activity call: inactive

What did the screen give for Efna5 (ephrin A5) #5, siRNA vendor or control pool qiagen single siRNA?
p65 translocation z-score, replicate mean: -1.1; activity call: inactive

With Efna5 (ephrin A5) #6, siRNA vendor or control pool qiagen single siRNA, how do the results read?
p65 translocation z-score, replicate mean: 1.84; activity call: inactive
